Assay results from PMC9380774, “Mpe1 senses the binding of pre-mRNA and controls 3′ end processing by CPF” (Molecular Cell, 2022).
Results are given in words; binding and its absence hold for the method and conditions named. For some of these results: In cells and extracts the contact can be indirect. Some binding calls cover weakened binding; strength is not graded here. Where a sequence is shown, tags or fusion partners need not be part of it.

T1: StrepII-tagged Mpe1 (Mpe1-SII) (S. cerevisiae) (UniProt P35728)
T1 sequence: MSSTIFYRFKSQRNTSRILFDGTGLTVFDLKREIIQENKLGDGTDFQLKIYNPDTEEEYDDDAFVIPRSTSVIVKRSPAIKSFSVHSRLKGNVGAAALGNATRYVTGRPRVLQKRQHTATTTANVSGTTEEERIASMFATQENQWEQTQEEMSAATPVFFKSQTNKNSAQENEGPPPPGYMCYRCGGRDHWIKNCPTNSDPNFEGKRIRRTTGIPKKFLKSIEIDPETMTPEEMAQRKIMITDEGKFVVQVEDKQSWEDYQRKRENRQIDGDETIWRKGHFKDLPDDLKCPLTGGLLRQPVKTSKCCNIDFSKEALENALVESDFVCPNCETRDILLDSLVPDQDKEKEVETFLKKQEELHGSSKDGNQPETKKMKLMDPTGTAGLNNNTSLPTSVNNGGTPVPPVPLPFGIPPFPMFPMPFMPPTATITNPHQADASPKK

T2: StrepII-tagged Mpe1 (Mpe1-SII) (S. cerevisiae), P35728
T2 chain: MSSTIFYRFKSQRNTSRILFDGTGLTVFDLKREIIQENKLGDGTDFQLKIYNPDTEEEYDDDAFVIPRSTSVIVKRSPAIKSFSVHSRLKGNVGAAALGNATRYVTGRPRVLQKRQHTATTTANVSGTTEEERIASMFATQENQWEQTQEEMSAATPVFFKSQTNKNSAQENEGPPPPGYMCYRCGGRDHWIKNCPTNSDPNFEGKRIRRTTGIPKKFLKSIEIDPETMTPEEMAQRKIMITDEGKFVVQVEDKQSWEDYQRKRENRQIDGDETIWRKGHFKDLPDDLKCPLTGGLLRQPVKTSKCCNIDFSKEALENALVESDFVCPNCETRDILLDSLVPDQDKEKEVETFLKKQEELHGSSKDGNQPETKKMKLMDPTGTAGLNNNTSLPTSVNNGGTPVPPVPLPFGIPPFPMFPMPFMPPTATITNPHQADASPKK

T3: Cft2(S), residues 1-720 (S. cerevisiae, UniProt Q12102 1-720)
T3 construct: Cft2, S. cerevisiae, residues 1-720, lacks the disordered C-terminal region; also called Cft2(short); truncated version of Cft2; source: E. coli BL21 Star (DE3), purified (Ni-NTA, 3C cleavage, MonoQ, Superdex 200)
T3 sequence (looked up): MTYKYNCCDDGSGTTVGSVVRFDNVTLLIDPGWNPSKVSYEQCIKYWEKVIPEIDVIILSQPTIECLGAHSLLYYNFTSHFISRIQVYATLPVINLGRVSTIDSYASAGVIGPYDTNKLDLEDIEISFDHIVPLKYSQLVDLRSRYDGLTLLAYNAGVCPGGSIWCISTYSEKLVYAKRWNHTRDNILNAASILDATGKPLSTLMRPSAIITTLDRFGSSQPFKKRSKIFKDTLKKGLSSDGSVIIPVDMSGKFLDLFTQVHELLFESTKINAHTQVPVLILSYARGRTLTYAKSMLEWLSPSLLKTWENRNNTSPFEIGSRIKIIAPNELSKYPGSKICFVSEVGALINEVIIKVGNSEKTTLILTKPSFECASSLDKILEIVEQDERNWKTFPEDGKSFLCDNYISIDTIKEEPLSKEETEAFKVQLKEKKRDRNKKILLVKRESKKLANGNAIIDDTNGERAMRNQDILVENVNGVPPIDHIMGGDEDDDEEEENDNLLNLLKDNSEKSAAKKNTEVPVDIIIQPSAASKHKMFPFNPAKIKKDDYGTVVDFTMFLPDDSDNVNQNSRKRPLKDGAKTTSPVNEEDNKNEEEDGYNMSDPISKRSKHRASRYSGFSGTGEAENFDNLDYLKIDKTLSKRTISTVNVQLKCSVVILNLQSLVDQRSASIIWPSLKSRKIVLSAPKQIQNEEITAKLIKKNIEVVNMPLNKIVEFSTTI


Columns and labels:
[1] = target: T1, StrepII-tagged Mpe1 (Mpe1-SII) (S. cerevisiae); assay: pull-down; Sf9 cells co-expressing Mpe1-SII with the partner; cleared lysate on Strep-Tactin resin in Buffer A (50 mM HEPES pH 8, 75 mM NaCl, 1 mM TCEP), eluted with desthiobiotin; SDS-PAGE stained with Instant Blue
[2] = target: T2, StrepII-tagged Mpe1 (Mpe1-SII) (S. …); assay: as above; conditions: remark: other sources report otherwise
[3] = target: T3, Cft2(S), residues 1-720; assay: cross-linking; polymerase module-Cft2(S)-Mpe1-RNA complex (0.5 mg/ml) with 2 mM sulfo-SDA for 2 h on ice, UV 365 nm for 15 min; 20 mM HEPES, 50 mM NaCl, 0.5 mM TCEP, pH 8.0; mass spectrometry, 1 % FDR on link level; both purified

Row | Binder | binding [2] | also measured
1 | Cft1 (protein, UniProt Q06632 1-1357) MNVYDDVLDATVVSHSLATHFTTSDYEELLVVRTNILSVYRPTRDGKLYLTDEFKFHGLITDIGLIPQKDSPLSCLLLCTGVAKISILKFNTLTNSIDTLSLHYYEGKFKGKSLVELAKISTLRMDPGSSCALLFNNDIIAFLPFHVNKNDDDEEEEDEDENIDDSELIHSMNQKSQGTNTFNKRKRTKLGDKFTAPSVVLVASELYEGAKNIIDIQFLKNFTKPTIALLYQPKLVWAGNTTISKLPTQYVILTLNIQPAESATKIESTTIAFVKELPWDLHTIVPVSNGAIIVGTNELAFLDNTGVLQSTVLLNSFADKELQKTKIINNSSLEIMFREKNTTSIWIPSSKSKNGGSNNDETLLLMDLKSNIYYIQMEAEGRLLIKFDIFKLPIVNDLLKENSNPKCITRLNATNSNKNMDLFIGFGSGNALVLRLNNLKSTIETREAHNPSSGTNSLMDINDDDDEEMDDLYADEAPENGLTTNDSKGTVETVQPFDIELLSSLRNVGPITSLTVGKVSSIDDVVKGLPNPNKNEYSLVATSGNGSGSHLTVIQTSVQPEIELALKFISITQIWNLKIKGRDRYLITTDSTKSRSDIYESDNNFKLHKGGRLRRDATTVYISMFGEEKRIIQVTTNHLYLYDTHFRRLTTIKFDYEVIHVSVMDPYILVTVSRGDIKIFELEEKNKRKLLKVDLPEILNEMVITSGLILKSNMCNEFLIGLSKSQEEQLLFTFVTADNQIIFFTKDHNDRIFQLNGVDQLNESLYISTYQLGDEIVPDPSIKQVMINKLGHDNKEEYLTILTFGGEIYQYRKLPQRRSRFYRNVTRNDLAITGAPDNAYAKGVSSIERIMHYFPDYNGYSVIFVTGSVPYILIKEDDSTPKIFKFGNIPLVSVTPWSERSVMCVDDIKNARVYTLTTDNMYYGNKLPLKQIKISNVLDDYKTLQKLVYHERAQLFLVSYCKRVPYEALGEDGEKVIGYDENVPHAEGFQSGILLINPKSWKVIDKIDFPKNSVVNEMRSSMIQINSKTKRKREYIIAGVANATTEDTPPTGAFHIYDVIEVVPEPGKPDTNYKLKEIFQEEVSGTVSTVCEVSGRFMISQSQKVLVRDIQEDNSVIPVAFLDIPVFVTDSKSFGNLLIIGDAMQGFQFIGFDAEPYRMISLGRSMSKFQTMSLEFLVNGGDMYFAATDADRNVHVLKYAPDEPNSLSGQRLVHCSSFTLHSTNSCMMLLPRNEEFGSPQVPSFQNVGGQVDGSVFKIVPLSEEKYRRLYVIQQQIIDRELQLGGLNPRMERLANDFYQMGHSMRPMLDFNVIRRFCGLAIDRRKSIAQKAGRHAHFEAWRDIINIEFSMRSLCQGK | – | binding [1]: binds
2 | Fip1, P45976 1-327 (protein) MSSSEDEDDKFLYGSDSELALPSSKRSRDDEADAGASSNPDIVKRQKFDSPVEETPATARDDRSDEDIYSDSSDDDSDSDLEVIISLGPDPTRLDAKLLDSYSTAATSSSKDVISVATDVSNTITKTSDERLITEGEANQGVTATTVKATESDGNVPKAMTGSIDLDKEGIFDSVGITTIDPEVLKEKPWRQPGANLSDYFNYGFNEFTWMEYLHRQEKLQQDYNPRRILMGLLSLQQQGKLNSANDTDSNLGNIIDNNNNVNNANMSNLNSNMGNSMSGTPNPPAPPMHPSFPPLPMFGSFPPFPMPGMMPPMNQQPNQNQNQNSK | no binding | –
3 | Yth1 (natural protein, S. cerevisiae, Yth1, S. cerevisiae, subunit of the polymerase module of CPF; E. coli codon-optimized gene (GeneArt); source: Sf9, baculovirus, co-expressed with Mpe1-SII, in lysate; also as subunit of the purified polymerase module (Sf9)) MSLIHPDTAKYPFKFEPFLRQEYSFSLDPDRPICEFYNSREGPKSCPRGPLCPKKHVLPIFQNKIVCRHWLRGLCKKNDQCEYLHEYNLRKMPECVFFSKNGYCTQSPDCQYLHIDPASKIPKCENYEMGFCPLGSSCPRRHIKKVFCQRYMTGFCPLGKDECDMEHPQFIIPDEGSKLRIKRDDEINTRKMDEEKERRLNAIINGEV | no binding | –
4 | StrepII-tagged Mpe1 (Mpe1-SII) (natural protein, S. cerevisiae, Mpe1, S. cerevisiae, subunit of the nuclease module of CPF; no cleavage is told; also called WT Mpe1; Mpe1-3C-SII; source: Sf9, baculovirus; in lysate, and purified (Strep-Tactin, MonoQ)) MSSTIFYRFKSQRNTSRILFDGTGLTVFDLKREIIQENKLGDGTDFQLKIYNPDTEEEYDDDAFVIPRSTSVIVKRSPAIKSFSVHSRLKGNVGAAALGNATRYVTGRPRVLQKRQHTATTTANVSGTTEEERIASMFATQENQWEQTQEEMSAATPVFFKSQTNKNSAQENEGPPPPGYMCYRCGGRDHWIKNCPTNSDPNFEGKRIRRTTGIPKKFLKSIEIDPETMTPEEMAQRKIMITDEGKFVVQVEDKQSWEDYQRKRENRQIDGDETIWRKGHFKDLPDDLKCPLTGGLLRQPVKTSKCCNIDFSKEALENALVESDFVCPNCETRDILLDSLVPDQDKEKEVETFLKKQEELHGSSKDGNQPETKKMKLMDPTGTAGLNNNTSLPTSVNNGGTPVPPVPLPFGIPPFPMFPMPFMPPTATITNPHQADASPKK | – | binding [3]: no binding
